This note sets out measurements from US20210361776A1 (Seagen, published 2021).

Chains of the proteins cited; added tags and fusions are not shown. Residues count along the entry.
UniProt P51654, residues 25-559: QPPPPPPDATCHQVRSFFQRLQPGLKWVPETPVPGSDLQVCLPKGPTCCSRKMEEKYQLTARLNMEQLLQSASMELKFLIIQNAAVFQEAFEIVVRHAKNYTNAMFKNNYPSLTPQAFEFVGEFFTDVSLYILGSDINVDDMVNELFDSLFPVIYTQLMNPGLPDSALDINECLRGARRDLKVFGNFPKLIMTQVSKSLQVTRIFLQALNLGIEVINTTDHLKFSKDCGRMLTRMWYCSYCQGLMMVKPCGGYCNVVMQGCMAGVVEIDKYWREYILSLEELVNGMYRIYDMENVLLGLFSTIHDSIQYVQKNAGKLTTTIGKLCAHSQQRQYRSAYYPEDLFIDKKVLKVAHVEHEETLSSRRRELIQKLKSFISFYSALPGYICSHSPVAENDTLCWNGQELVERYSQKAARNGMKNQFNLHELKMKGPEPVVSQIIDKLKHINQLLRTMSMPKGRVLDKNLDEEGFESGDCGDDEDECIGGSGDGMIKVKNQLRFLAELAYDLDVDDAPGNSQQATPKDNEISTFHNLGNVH

Results are given in words; binding and its absence hold for the method and conditions named. Some results given as binding are weak or reduced against the parent protein; the word gives no strength.

The target in test [1] is Human GPC3 (hGPC3 GP3-H5258, AcroBiosystems), biotinylated (human) (UniProt P51654). Kind of test: sensorgrams at 400, 160, 64, 25.6, 10.2, 4.1 and 1.64 nM on immobilized hGPC3.
The target is the same in test [2]. Nature of the test: biolayer interferometry (Octet Red 384; the legend calls it surface plasmon resonance), biotinylated hGPC3 on streptavidin (SAX) biosensors, hGPC3-1ec as analyte at 400, 160, 64, 25.6, 10.2, 4.1 and 1.64 nM, association 600 sec, dissociation 1800 sec. On the technique in general: Biolayer interferometry detects binding as a change in optical thickness at a sensor tip.

B1: hGPC3-1ec (HBLE) (antibody, V domains shown)
VH: EVQLVQSGAEVKKPGATVKISCKVSGYTFTDYEMHWVQQAPGKGLEWMGGIDPETGGTAYNQKFKGRVTLTADKSTDTAYMELSSLRSEDTAVYYCGRYYSFAYWGQGTLVTVSS
VL: DVVMTQSPLSLPVTLGQPASISCRSSQSIVHSNANTYLQWFQQRPGQSPRLLIYKVSNRFSGVPDRFSGSGSGTDFTLKISRVEAEDVGVYYCFQVSHVPYTFGQGTKLEIK
notes: HBLE variable regions on IgG1 with a cysteine substitution at position 239 of the heavy chain (S239C, EU index); 'ec' marks this; Tested unconjugated; also called humanized GPC3-1ec
Take B1: the binding entry in test [1] and in test [2] was “binds” throughout.
